The chains behind the UniProt entries cited, without tags or fusion partners.
UniProt O60566: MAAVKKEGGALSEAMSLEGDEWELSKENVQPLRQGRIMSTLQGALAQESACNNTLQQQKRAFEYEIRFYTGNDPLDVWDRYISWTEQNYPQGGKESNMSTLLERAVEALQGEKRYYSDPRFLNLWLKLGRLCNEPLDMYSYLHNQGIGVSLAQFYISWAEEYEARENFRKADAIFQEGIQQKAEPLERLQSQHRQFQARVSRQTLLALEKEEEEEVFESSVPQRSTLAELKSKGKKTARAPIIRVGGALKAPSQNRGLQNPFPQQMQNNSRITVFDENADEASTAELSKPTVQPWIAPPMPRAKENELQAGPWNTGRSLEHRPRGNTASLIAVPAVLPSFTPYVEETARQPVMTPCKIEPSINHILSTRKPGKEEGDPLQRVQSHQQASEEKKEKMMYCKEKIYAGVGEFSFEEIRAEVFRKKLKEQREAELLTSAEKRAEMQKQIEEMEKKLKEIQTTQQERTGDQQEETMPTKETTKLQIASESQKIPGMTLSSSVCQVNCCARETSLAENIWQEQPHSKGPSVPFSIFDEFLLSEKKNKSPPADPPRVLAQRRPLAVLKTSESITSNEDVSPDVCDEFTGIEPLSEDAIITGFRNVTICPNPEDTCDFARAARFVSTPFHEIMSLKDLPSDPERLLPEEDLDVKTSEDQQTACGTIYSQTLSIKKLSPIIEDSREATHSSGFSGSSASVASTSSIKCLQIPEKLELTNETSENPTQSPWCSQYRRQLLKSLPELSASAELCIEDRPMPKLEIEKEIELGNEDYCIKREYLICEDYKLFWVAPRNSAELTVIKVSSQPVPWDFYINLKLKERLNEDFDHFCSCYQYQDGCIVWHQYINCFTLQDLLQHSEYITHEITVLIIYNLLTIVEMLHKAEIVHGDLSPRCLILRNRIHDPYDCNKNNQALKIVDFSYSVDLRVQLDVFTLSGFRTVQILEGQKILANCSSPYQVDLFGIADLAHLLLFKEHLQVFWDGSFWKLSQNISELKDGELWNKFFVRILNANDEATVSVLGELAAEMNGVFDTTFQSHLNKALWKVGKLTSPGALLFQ
UniProt Q13257: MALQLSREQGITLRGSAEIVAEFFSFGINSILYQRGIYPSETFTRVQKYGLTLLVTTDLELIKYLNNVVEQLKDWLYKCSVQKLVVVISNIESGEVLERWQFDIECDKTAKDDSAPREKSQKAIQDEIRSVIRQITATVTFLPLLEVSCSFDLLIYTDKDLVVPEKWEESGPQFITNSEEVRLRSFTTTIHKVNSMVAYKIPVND
UniProt O43683: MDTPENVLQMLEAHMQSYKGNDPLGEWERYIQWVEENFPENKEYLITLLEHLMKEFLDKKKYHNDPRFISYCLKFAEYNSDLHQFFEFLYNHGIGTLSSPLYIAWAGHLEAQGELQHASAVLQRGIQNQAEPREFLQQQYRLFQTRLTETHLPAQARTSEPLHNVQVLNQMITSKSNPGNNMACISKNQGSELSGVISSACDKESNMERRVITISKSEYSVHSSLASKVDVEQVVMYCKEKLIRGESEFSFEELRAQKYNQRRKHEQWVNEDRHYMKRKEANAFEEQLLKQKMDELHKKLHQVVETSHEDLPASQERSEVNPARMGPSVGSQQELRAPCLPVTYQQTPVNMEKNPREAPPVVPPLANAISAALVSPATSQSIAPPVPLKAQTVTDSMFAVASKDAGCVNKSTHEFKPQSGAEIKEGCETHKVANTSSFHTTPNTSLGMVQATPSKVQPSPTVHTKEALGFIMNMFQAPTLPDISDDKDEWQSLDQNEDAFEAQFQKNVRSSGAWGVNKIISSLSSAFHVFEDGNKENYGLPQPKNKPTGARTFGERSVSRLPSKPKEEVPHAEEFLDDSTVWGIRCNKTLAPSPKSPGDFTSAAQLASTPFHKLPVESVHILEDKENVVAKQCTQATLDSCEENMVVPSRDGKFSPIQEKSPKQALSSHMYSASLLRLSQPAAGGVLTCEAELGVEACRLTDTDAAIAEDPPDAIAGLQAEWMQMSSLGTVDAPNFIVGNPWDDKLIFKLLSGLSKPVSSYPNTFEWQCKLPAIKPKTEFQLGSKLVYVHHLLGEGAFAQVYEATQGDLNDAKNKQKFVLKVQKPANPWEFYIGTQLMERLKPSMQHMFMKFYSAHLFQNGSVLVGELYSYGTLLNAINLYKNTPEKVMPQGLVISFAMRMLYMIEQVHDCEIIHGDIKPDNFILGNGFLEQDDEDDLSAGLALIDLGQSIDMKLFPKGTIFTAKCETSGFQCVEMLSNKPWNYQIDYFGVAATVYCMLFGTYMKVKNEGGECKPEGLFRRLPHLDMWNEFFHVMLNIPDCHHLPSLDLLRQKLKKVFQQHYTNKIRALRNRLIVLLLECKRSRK
UniProt O43684: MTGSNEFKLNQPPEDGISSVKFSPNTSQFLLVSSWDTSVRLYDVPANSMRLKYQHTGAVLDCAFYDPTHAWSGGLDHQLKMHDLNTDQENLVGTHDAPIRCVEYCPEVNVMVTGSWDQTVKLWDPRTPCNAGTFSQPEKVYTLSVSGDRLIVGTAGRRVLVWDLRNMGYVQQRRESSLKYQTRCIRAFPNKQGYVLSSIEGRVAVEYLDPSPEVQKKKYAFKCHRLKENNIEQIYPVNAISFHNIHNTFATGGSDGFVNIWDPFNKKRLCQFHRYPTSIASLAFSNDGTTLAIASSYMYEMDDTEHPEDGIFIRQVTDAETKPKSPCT
UniProt Q7Z7K6: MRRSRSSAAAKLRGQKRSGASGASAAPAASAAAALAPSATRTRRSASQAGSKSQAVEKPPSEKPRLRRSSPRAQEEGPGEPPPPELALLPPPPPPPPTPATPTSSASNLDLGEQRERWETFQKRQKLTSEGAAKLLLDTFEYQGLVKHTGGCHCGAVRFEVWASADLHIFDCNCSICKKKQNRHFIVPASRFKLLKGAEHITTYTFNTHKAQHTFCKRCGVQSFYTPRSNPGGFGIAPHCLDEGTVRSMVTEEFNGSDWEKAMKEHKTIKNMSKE
UniProt P63167: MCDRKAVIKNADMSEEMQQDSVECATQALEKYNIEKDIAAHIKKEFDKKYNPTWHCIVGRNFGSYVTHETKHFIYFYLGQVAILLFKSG
UniProt Q8NG31: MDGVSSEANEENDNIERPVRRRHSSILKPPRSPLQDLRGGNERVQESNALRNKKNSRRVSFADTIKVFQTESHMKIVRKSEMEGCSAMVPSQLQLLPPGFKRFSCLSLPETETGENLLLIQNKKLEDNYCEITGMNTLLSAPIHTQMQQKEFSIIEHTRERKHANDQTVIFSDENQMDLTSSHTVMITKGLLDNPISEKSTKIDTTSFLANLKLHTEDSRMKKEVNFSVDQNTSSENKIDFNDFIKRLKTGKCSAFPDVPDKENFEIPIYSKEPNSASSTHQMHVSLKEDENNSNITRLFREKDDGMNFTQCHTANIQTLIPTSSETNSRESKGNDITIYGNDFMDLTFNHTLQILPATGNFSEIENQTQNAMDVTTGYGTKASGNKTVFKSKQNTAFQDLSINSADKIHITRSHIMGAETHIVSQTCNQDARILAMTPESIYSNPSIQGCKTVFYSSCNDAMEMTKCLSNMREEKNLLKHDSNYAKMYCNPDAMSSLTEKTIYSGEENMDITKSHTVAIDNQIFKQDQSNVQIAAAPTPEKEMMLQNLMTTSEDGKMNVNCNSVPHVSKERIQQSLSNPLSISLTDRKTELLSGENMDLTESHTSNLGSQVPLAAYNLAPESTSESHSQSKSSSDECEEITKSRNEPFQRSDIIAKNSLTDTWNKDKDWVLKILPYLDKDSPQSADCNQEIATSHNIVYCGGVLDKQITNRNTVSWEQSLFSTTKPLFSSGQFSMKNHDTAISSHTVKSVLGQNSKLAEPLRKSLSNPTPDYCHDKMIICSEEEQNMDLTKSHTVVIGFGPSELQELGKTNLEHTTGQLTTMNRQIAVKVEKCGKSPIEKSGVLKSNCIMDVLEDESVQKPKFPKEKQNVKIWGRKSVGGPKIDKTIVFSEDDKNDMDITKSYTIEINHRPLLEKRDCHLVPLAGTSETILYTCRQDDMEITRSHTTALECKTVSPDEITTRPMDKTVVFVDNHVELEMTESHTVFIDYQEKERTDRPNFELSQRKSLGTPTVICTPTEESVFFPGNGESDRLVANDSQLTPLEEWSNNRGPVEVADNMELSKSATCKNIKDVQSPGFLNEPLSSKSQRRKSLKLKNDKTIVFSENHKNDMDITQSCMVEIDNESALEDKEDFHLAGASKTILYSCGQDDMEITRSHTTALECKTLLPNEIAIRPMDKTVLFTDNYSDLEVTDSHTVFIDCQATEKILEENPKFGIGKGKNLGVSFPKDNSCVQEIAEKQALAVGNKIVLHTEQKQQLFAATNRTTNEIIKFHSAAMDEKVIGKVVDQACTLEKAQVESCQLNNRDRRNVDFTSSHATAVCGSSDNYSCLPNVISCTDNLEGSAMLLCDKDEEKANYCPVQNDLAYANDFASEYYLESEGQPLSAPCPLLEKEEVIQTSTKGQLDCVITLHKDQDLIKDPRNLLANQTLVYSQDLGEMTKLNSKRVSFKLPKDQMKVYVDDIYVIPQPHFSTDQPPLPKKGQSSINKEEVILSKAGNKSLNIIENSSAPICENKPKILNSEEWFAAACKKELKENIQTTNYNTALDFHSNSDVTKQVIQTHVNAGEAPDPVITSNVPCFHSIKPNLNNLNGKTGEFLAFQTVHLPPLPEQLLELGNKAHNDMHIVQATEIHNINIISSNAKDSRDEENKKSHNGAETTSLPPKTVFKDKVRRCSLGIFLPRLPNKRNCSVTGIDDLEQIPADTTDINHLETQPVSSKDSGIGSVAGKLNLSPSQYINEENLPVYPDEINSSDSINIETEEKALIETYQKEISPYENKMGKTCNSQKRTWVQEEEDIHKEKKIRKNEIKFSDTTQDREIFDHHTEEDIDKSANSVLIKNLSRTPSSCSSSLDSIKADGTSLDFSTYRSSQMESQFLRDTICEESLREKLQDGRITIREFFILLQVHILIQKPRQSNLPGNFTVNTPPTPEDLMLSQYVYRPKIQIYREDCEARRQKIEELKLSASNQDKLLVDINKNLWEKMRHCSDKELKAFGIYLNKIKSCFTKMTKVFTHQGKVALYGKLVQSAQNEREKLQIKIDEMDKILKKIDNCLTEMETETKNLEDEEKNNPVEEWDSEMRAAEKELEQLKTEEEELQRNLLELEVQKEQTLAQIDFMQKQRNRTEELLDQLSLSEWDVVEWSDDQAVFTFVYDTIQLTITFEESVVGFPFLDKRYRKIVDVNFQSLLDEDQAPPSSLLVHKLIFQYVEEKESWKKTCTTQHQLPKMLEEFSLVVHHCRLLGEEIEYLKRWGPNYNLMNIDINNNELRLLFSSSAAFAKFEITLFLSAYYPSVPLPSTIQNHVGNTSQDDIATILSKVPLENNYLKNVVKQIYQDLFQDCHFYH
UniProt P53350: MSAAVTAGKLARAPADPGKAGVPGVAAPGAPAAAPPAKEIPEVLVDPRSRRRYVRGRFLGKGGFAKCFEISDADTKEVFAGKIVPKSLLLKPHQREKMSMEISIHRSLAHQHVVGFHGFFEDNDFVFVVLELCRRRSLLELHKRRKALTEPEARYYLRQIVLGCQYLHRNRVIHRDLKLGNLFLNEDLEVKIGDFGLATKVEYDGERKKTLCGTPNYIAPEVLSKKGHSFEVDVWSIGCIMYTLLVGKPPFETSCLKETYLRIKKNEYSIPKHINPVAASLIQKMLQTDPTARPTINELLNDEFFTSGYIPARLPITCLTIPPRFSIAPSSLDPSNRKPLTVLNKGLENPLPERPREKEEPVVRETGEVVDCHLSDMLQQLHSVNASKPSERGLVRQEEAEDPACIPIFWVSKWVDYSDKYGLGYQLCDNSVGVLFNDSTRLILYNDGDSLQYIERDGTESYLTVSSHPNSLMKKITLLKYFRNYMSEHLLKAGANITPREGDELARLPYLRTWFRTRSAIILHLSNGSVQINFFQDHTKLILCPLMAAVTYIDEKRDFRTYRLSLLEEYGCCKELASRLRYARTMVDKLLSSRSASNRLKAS

According to publication doi:10.1101/2020.06.04.133710:

B1: SGO2 (protein, UniProt Q562F6 1-1265)
chain: MECPVMETGSLFTSGIKRHLKDKRISKTTKLNVSLASKIKTKILNNSSIFKISLKHNNRALAQALSREKENSRRITTEKMLLQKEVEKLNFENTFLRLKLNNLNKKLIDIEALMNNNLITAIEMSSLSEFHQSSFLLSASKKKRISKQCKLMRLPFARVPLTSNDDEDEDKEKMQCDNNIKSKTLPDIPSSGSTTQPLSTQDNSEVLFLKENNQNVYGLDDSEHISSIVDVPPRESHSHSDQSSKTSLMSEMRNAQSIGRRWEKPSPSNVTERKKRGSSWESNNLSADTPCATVLDKQHISSPELNCNNEINGHTNETNTEMQRNKQDLPGLSSESAREPNAECMNQIEDNDDFQLQKTVYDADMDLTASEVSKIVTVSTGIKKKSNKKTNEHGMKTFRKVKDSSSEKKRERSKRQFKNSSDVDIGEKIENRTERSDVLDGKRGAEDPGFIFNNEQLAQMNEQLAQVNELKKMTLQTGFEQGDRENVLCNKKEKRITNEQEETYSLSQSSGKFHQESKFDKGQNSLTCNKSKASRQTFVIHKLEKDNLLPNQKDKVTIYENLDVTNEFHTANLSTKDNGNLCDYGTHNILDLKKYVTDIQPSEQNESNINKLRKKVNRKTEIISGMNHMYEDNDKDVVHGLKKGNFFFKTQEDKEPISENIEVSKELQIPALSTRDNENQCDYRTQNVLGLQKQITNMYPVQQNESKVNKKLRQKVNRKTEIISEVNHLDNDKSIEYTVKSHSLFLTQKDKEIIPGNLEDPSEFETPALSTKDSGNLYDSEIQNVLGVKHGHDMQPACQNDSKIGKKPRLNVCQKSEIIPETNQIYENDNKGVHDLEKDNFFSLTPKDKETISENLQVTNEFQTVDLLIKDNGNLCDYDTQNILELKKYVTDRKSAEQNESKINKLRNKVNWKTEIISEMNQIYEDNDKDAHVQESYTKDLDFKVNKSKQKLECQDIINKHYMEVNSNEKESCDQILDSYKVVKKRKKESSCKAKNILTKAKNKLASQLTESSQTSISLESDLKHITSEADSDPGNPVELCKTQKQSTTTLNKKDLPFVEEIKEGECQVKKVNKMTSKSKKRKTSIDPSPESHEVMERILDSVQGKSTVSEQADKENNLENEKMVKNKPDFYTKAFRSLSEIHSPNIQDSSFDSVREGLVPLSVSSGKNVIIKENFALECSPAFQVSDDEHEKMNKMKFKVNRRTQKSGIGDRPLQDLSNTSFVSNNTAESENKSEDLSSERTSRRRRCTPFYFKEPSLRDKMRR
B2: NUP50 (protein, UniProt Q9UKX7 1-468)
chain: MAKRNAEKELTDRNWDQEDEAEEVGTFSMASEEVLKNRAIKKAKRRNVGFESDTGGAFKGFKGLVVPSGGGRFSGFGSGAGGKPLEGLSNGNNITSAPPFASAKAAADPKVAFGSLAANGPTTLVDKVSNPKTNGDSQQPSSSGLASSKACVGNAYHKQLAALNCSVRDWIVKHVNTNPLCDLTPIFKDYEKYLANIEQQHGNSGRNSESESNKVAAETQSPSLFGSTKLQQESTFLFHGNKTEDTPDKKMEVASEKKTDPSSLGATSASFNFGKKVDSSVLGSLSSVPLTGFSFSPGNSSLFGKDTTQSKPVSSPFPTKPLEGQAEGDSGECKGGDEEENDEPPKVVVTEVKEEDAFYSKKCKLFYKKDNEFKEKGIGTLHLKPTANQKTQLLVRADTNLGNILLNVLIPPNMPCTRTGKNNVLIVCVPNPPIDEKNATMPVTMLIRVKTSEDADELHKILLEKKDA
B3: DSN1 (protein, UniProt Q9H410 1-356)
chain: MTSVTRSEIIDEKGPVMSKTHDHQLESSLSPVEVFAKTSASLEMNQGVSEERIHLGSSPKKGGNCDLSHQERLQSKSLHLSPQEQSASYQDRRQSWRRASMKETNRRKSLHPIHQGITELSRSISVDLAESKRLGCLLLSSFQFSIQKLEPFLRDTKGFSLESFRAKASSLSEELKHFADGLETDGTLQKCFEDSNGKASDFSLEASVAEMKEYITKFSLERQTWDQLLLHYQQEAKEILSRGSTEAKITEVKVEPMTYLGSSQNEVLNTKPDYQKILQNQSKVFDCMELVMDELQGSVKQLQAFMDESTQCFQKVSVQLGKRSMQQLDPSPARKLLKLQLQNPPAIHGSGSGSCQ
B4: PMF1 (protein, UniProt Q6P1K2 1-205)
chain: MAEASSANLGSGCEEKRHEGSSSESVPPGTTISRVKLLDTMVDTFLQKLVAAGSYQRFTDCYKCFYQLQPAMTQQIYDKFIAQLQTSIREEISDIKEEGNLEAVLNALDKIVEEGKVRKEPAWRPSGIPEKDLHSVMAPYFLQQRDTLRRHVQKQEAENQQLADAVLAGRRQVEELQLQVQAQQQAWQALHREQRELVAVLREPE

Legend:
Assay in all cases: proximity labelling
[1] = target: BUBR1 (human) (UniProt O60566)
[2] = target: MAD2L1 (human) (UniProt Q13257)
[3] = target: BUB1 (human) (UniProt O43683)
[4] = target: BUB3 (human) (UniProt O43684)
[5] = target: T1, MAD1L1 (human) (UniProt Q9Y6D9)
T1 sequence: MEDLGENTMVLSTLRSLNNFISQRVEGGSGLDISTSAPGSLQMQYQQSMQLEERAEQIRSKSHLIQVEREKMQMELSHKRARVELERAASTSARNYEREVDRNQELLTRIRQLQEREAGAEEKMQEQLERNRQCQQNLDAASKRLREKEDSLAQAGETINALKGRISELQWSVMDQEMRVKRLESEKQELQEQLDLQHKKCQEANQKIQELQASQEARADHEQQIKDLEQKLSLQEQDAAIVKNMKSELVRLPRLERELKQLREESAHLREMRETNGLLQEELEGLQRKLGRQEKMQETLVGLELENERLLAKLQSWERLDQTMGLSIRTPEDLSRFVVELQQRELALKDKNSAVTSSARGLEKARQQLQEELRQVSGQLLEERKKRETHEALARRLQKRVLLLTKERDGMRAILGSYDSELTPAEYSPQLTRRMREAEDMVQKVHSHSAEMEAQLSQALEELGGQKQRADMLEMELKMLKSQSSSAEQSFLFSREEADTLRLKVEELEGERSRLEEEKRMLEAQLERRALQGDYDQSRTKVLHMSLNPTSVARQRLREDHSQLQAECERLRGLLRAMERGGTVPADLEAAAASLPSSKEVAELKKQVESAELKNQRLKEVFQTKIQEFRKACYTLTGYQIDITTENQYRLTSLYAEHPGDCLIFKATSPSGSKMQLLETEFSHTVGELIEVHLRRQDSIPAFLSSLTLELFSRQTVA

[6] = target: BUB1 (human) (UniProt O43683); remark: listed apart in the source
[7] = target: BUB3 (human) (UniProt O43684); remark: listed apart in the source
[8] = target: BUBR1 (human) (UniProt O60566); remark: listed apart in the source
[9] = target: T1, MAD1L1 (human); remark: listed apart in the source
[10] = target: MAD2L1 (human) (UniProt Q13257); remark: listed apart in the source

| Molecule | binding [1] | binding [2] | binding [3] | binding [4] | binding [5] | binding [6] | binding [9] | further results |
| --- | --- | --- | --- | --- | --- | --- | --- | --- |
| BUB3 (from UniProt O43684 1-328) | binds | – | – | – | – | – | – | – |
| CENPV (from UniProt Q7Z7K6 1-275) | – | binds | – | – | – | – | – | – |
| DYNLL1 (from UniProt P63167 1-89) | binds | binds | binds | binds | binds | – | – | – |
| ELYS/AHCTF1 (from UniProt Q8WYP5 1-2266) | binds | binds | binds | binds | binds | – | – | – |
| KNL1 (from UniProt Q8NG31 1-2342) | binds | no binding | – | binds | binds | – | – | – |
| NUP153 (from UniProt P49790 1-1475) | no binding | binds | no binding | no binding | binds | – | – | – |
| NUP210 (from UniProt Q8TEM1 27-1887) | – | binds | – | – | – | – | – | – |
| PLK1 (from UniProt P53350 1-603) | binds | binds | – | binds | binds | – | – | – |
| TPR (from UniProt P12270 1-2363) | no binding | – | no binding | no binding | – | – | – | – |
| B1 | – | – | – | – | – | binds | binds | binding [7]: binds; binding [8]: binds; binding [10]: binds |
| B2 | – | – | – | – | – | no binding | binds | binding [7]: no binding; binding [8]: no binding; binding [10]: binds |
| B3 | – | – | – | – | – | binds | binds | – |
| B4 | – | – | – | – | – | binds | binds | – |

Read-outs that look alike come from different tables or passages of the source. These are yes or no findings as the source states them, for the method shown. Binding seen in cells or lysates may run through a third protein. Here binding means that the protein was enriched with, or labelled near, the bait; the list need not be complete. For some of these results: No binding means not detected with the bait.
